In PubChem BioAssay AID485298 (National Center for Advancing Translational Sciences (NCATS), 2010):
Among all 320,000 compounds or so, about 740 (0.23%) were called active. Inconclusive results, whose numbers are uncertain, are shown with a selection of clear calls. Calls come from the whole dose curve; as a rule, active = well fitted activation curve with a large enough effect; inconclusive = small, poorly fitted or top-dose-only effect; inactive = no such curve, though single readings can be large or run the other way. A potency beside an inconclusive call is a rough fit, not a confirmed value.
Potency is the fitted concentration of half-maximal effect.

Experiment: qHTS Assay for Small Molecule Inhibitors of Mitochondrial Division or Activators of Mitochondrial Fusion; note: nearly all actives have a fitted effect of over 45% in size
Settings: S. cerevisiae fusion-defective mutant growth rescue, CellTiterGlo 48 h; series mostly up to 46.1 µM
Procedure, shortened: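 Temperature-sensitive fusion-defective S. cerevisiae (e.g. fzo1-1, mgm1-5) were grown with compound in YPEG medium (3% ethanol, 3% glycerol) for 48 hours at 37C. Growth rescue was measured as viability by CellTiterGlo luminescence after 10 minutes at ambient.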
For `CCc1cc2c(CN3CCN(CCO)CC3)cc(=O)oc2cc1O`, the Potency was inconclusive: 3.55 µM [activator, full curve].
In the case of `OC(CNCc1ccncc1)c1ccccc1` (centres undefined), the Potency is reported as “inactive”.
For `CC(C)Oc1ccc(C(=O)Nc2ccc(Cl)c(S(=O)(=O)Nc3ccc(Cl)cc3)c2)cc1`, the Potency was “inactive”.
For `COc1cc([C@@H]2c3cc4c(cc3[C@@H](NC3CCN(Cc5ccccc5)CC3)[C@H]3COC(=O)[C@H]23)OCO4)cc(OC)c1O`, the Potency was inconclusive: 2.82 µM [activator, full curve, poor fit].
For `CCSC(=Nc1ccccc1)Nc1ccccc1`, the Potency was inconclusive: 22.4 µM [activator, single point].
In the case of `CCc1cccc(N=c2c([N+](=O)[O-])nn(-c3ccc(Cl)cc3)n2O)c1`, the Potency is reported as active: 17.8 µM.
In the case of `COc1ccc(C(=O)NC(C)C2CC3CCC2C3)c(OC)c1` (centres undefined), the Potency is reported as inconclusive: 22.4 µM [activator, partial curve, poor fit].
In the case of `S=C1NC(c2cccs2)=CC(c2ccc(Br)cc2)N1` (centres undefined), the Potency is reported as inconclusive: 22.4 µM [activator, partial curve].
For `COc1ccc(NC(=O)CN(C)C(=O)c2ccc(N3CCCCCC3)c([N+](=O)[O-])c2)cc1`, the Potency was inconclusive: 35.5 µM [activator, partial curve, poor fit].
With `Cc1cc(C=C2C(=O)CCCC2=O)c(C)n1-c1ccccc1` the Potency was “inactive”.
For `Cc1cc(C)cc(N2C(=O)CN(Cc3sccc3C)C2=S)c1`, the Potency was inconclusive: 10 µM [activator, partial curve].
With `Cc1cccc(C(=O)Nc2ccccc2C(=O)NCc2ccco2)c1` the Potency was “inactive”.
With `CC1=Cc2ccccc2C(C#N)N1C(=O)c1ccccc1` (centres undefined) the Potency was active: 12.6 µM.
For `Cc1nn(C)c(=O)n1-c1ccccc1`, the Potency was inconclusive: 17.8 µM [activator, single point].
In the case of `O=C(/C=C(\O)c1ccccc1)C(=O)NNC(=O)c1ccccc1`, the Potency is reported as inconclusive: 1.78 µM [activator, partial curve].
In the case of `O=C(Nc1ccccn1)c1cccc(S(=O)(=O)N2CCCCC2)c1`, the Potency is reported as “inactive”.
With `COc1ccc(-c2cc(C)nc(SCc3cccc(C(=O)O)c3)n2)cc1` the Potency was inconclusive: 14.1 µM [activator, partial curve].
In the case of `Cc1ccc(C(=O)COC(=O)c2cccc(N3C(=O)c4c(C)nc5ccccc5c4C3=O)c2)cc1C`, the Potency is reported as inconclusive: 22.4 µM [activator, partial curve].
With `Cc1ccccc1NC(=O)CSc1nc(N)c2c3c(sc2n1)CSC(C)(C)C3` the Potency was inconclusive: 22.4 µM [activator, single point].
